Assay results reported in paper PMC6793842.
These are yes or no findings as the source states them, for the method shown. Some results given as binding are weak or reduced against the parent protein; the word gives no strength.

Protein sequences, listed by entry. Tags and fused reporters are not part of them. Residues count along the entry.
UniProt Q8ILP3, residues 23-945: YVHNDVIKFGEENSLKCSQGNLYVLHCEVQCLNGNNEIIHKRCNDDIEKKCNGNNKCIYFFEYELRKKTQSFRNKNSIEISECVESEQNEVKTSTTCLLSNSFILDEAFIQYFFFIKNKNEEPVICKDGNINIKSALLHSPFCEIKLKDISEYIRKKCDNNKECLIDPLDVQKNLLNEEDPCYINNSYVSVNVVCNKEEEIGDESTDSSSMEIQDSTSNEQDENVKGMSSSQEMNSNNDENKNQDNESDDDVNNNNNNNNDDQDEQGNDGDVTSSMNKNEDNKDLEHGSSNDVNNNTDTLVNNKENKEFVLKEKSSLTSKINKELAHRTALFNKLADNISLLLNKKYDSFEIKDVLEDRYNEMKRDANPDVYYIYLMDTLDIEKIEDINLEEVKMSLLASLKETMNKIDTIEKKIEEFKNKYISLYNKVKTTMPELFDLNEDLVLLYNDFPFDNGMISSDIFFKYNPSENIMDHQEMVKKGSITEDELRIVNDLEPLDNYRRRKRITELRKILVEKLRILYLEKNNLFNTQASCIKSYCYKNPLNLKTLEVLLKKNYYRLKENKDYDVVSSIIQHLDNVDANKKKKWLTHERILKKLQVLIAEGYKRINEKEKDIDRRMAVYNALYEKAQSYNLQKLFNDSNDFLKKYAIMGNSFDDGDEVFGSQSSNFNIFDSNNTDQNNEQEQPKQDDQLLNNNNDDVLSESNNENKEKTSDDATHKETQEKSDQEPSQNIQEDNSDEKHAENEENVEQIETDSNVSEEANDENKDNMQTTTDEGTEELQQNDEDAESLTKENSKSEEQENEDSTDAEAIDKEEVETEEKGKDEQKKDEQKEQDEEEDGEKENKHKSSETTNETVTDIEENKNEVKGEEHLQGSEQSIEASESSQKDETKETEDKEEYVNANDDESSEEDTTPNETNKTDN
UniProt Q8IFM5, residues 25-526: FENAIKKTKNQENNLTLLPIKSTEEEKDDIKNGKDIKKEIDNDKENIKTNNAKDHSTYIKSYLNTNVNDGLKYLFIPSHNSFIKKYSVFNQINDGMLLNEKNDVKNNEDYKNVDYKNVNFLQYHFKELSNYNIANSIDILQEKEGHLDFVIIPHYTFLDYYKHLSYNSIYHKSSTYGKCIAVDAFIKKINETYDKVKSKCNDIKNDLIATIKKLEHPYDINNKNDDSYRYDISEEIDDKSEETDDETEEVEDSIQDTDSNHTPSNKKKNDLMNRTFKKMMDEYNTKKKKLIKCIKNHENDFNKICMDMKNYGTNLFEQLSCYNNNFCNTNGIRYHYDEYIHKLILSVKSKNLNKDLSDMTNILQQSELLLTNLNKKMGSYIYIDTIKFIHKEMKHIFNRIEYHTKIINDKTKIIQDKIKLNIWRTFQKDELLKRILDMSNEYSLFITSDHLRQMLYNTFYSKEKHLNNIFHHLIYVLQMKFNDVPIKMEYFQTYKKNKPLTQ

Target: P. falciparum P113, biotinylated bait (P. falciparum) (UniProt Q8ILP3)
Assay: AVEXIS (avidity-based extracellular interaction screening)

P. falciparum RH5, AVEXIS prey (from UniProt Q8IFM5 25-526) (ligand)
binding: binds
